In publication PMC2744924:
Like-named read-outs stand apart in the source and are kept apart here. Results are given in words; binding and its absence hold for the method and conditions named. For some assays here: In cells and extracts the contact can be indirect. Some entries that bind do so weakly or less than the wild type. For some assays here: Sequences can lack the tags named with a protein. Each block holds one molecule with its values, some of them ahead of it.

The chains behind the UniProt entries cited, without tags or fusion partners.
UniProt Q8IZP0: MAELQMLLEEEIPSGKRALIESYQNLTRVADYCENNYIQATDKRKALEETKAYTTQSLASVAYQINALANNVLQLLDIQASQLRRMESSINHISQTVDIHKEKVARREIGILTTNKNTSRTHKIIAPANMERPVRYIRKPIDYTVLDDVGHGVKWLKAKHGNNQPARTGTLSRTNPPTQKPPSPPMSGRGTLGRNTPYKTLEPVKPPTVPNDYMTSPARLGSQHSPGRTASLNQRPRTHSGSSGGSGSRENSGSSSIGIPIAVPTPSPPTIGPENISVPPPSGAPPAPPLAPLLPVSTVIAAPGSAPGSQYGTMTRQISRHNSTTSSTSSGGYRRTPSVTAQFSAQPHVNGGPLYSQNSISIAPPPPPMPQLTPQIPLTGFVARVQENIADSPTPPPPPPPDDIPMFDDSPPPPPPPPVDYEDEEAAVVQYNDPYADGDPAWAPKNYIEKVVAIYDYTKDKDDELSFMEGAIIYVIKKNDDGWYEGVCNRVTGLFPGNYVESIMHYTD
UniProt P60953: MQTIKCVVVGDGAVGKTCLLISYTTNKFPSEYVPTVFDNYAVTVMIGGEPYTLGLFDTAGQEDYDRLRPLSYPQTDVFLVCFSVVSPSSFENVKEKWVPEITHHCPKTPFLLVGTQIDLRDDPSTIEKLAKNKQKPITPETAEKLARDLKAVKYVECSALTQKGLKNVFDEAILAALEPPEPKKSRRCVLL
UniProt O00401: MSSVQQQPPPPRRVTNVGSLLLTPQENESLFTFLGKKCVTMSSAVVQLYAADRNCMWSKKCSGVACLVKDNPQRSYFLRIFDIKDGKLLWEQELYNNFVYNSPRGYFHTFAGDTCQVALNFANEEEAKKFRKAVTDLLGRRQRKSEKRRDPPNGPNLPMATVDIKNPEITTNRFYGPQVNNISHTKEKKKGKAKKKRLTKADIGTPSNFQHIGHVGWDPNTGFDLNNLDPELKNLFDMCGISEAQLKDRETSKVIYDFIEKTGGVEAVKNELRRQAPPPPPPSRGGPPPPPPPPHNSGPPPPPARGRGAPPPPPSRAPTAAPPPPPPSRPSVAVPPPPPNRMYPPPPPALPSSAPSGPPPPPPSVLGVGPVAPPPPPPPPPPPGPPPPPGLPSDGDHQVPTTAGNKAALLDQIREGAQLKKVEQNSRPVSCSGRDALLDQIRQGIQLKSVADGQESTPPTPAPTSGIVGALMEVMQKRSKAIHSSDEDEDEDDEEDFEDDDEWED
UniProt O43516: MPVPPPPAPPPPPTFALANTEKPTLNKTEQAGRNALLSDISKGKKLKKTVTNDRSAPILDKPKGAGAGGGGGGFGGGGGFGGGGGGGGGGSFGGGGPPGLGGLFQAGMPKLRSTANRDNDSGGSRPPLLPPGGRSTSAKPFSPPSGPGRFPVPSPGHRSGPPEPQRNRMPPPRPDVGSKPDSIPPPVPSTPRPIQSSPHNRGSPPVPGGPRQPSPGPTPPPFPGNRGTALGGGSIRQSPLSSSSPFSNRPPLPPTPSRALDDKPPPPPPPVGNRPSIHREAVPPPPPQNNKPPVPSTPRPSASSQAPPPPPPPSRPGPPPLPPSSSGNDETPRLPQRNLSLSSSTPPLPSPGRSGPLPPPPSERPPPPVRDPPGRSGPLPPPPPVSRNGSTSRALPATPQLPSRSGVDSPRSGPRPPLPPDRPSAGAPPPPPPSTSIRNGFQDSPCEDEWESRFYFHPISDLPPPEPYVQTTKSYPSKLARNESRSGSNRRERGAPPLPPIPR
UniProt Q9Y6W5: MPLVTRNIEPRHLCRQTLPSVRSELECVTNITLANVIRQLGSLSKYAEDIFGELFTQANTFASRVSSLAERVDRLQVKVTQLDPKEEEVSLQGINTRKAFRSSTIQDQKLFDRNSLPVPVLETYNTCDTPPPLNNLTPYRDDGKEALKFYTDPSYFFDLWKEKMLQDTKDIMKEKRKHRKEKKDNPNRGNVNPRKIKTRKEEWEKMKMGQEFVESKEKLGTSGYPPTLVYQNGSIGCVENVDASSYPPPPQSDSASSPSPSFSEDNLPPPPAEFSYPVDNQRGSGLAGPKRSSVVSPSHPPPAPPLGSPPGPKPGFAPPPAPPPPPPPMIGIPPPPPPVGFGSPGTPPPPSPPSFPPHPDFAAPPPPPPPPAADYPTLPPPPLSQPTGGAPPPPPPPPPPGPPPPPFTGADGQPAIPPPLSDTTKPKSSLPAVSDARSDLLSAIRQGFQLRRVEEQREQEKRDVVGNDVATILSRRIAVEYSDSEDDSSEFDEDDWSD

Assays:
[1] = biological target: T1, SH3 domain of mammalian (human) TOCA-1 fused to GST (human) (UniProt Q5T0N5); assay: pull-down; GST-SH3 fusion proteins immobilised (5-15 ug), incubated with total HeLa cell lysates (1-2 mg); bound proteins by immunoblot; only the target purified
T1 sequence: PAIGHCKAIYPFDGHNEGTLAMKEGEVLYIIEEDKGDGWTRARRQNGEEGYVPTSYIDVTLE

[2] = biological target: T2, SH3 domain of C. elegans CeTOCA-2 fused to GST (C. elegans) (UniProt Q9XUS7); assay: as above
T2 sequence: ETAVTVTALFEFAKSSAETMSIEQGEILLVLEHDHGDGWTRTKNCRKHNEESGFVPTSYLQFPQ

[3] = biological target: T3, SH3 domain of C. elegans CeTOCA-1 fused to GST (C. elegans) (UniProt Q19253); assay: as above
T3 sequence: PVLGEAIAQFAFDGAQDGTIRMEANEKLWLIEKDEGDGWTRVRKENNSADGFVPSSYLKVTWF

TOCA-1-HA (human) = biological target: T4, TOCA-1-HA (human) (UniProt Q5T0N5); assay: co-IP; lysates of transfected HeLa cells; IP with anti-HA (TOCA-1-HA) or anti-ABI1 (ABI1-HA) antibody; immunoblot
T4 sequence: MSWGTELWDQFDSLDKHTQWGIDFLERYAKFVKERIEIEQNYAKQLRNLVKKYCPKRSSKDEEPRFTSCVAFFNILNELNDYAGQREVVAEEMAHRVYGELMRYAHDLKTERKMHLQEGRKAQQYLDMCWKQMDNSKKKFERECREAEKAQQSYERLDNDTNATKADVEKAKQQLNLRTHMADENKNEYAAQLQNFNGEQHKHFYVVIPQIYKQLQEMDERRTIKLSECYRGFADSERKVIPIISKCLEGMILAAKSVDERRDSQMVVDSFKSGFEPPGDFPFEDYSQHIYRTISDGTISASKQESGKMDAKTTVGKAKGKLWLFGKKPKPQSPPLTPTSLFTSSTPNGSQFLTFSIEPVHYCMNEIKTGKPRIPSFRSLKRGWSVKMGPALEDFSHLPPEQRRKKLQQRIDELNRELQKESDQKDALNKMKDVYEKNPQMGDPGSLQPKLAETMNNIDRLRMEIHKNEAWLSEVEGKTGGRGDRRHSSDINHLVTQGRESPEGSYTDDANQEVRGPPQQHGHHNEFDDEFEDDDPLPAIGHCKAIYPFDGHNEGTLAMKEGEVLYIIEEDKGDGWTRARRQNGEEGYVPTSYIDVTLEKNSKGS

[4] = biological target: T1, SH3 domain of mammalian (human) TOCA-1 fused to GST (human); assay: pull-down; purified N-WASP incubated with SH3-GST fusion proteins (10 ug); bound N-WASP by immunoblot; both purified
[5] = biological target: ABI-1, endogenous in HeLa lysate (human (endogenous in HeLa)) (UniProt Q8IZP0); assay: co-IP; endogenous proteins; total HeLa lysates (2 mg) immunoprecipitated with anti-ABI-1 or control unrelated IgG (WAVE2 also told in TOCA-1 immunoprecipitates); immunoblot
[6] = biological target: ABI-1, endogenous in HeLa lysate (human (endogenous in HeLa)) (UniProt Q8IZP0); assay: as above; remark: listed apart in the source
GST-Cdc42 = GST-Cdc42 (UniProt P60953); assay: pull-down; immobilised GTP-gamma-S-loaded GST-Cdc42 (10 ug) incubated with lysates (1 mg) of HeLa cells, untransfected or transfected; immunoblot; only the target purified

Molecule: ABI-1, endogenous in HeLa lysate (from UniProt Q8IZP0 1-508)
- binding [1]: binds

Molecule: Purified N-WASP (from UniProt O00401 1-505)
- binding [4]: binds

Molecule: WIP, endogenous in HeLa lysate (from UniProt O43516 1-503)
- binding [1]: binds

Molecule: WAVE2, endogenous in HeLa lysate (from UniProt Q9Y6W5 1-498)
- binding [5]: binds

B1: TOCA-1, endogenous in HeLa lysate (protein, UniProt Q5T0N5 1-605)
chain: T4 sequence
- binding [6]: binds
- binding (GST-Cdc42): binds

Other lines, results leading:

- binding [1]: binds
- binding [2]: binds
- binding [3]: binds
Molecule: mammalian N-WASP, endogenous in HeLa lysate (from UniProt O00401 1-505)

- binding (TOCA-1-HA (human)): binds
Molecule: ABI-1-GFP (from UniProt Q8IZP0 1-508)

- binding (GST-Cdc42): binds
B2: TOCA-1-HA (protein, UniProt Q5T0N5 1-605)
chain: T4 sequence
